# Data taken from the supplement of paper PMC8728848.
# The other results are listed elsewhere or left out.
# B1: CALR truncated at D342 (Homo sapiens) (protein)
# chain: EPAVYFKEQFLDGDGWTSRWIESKHKSDFGKFVLSSGKFYGDEEKDKGLQTSQDARFYALSASFEPFSNKGQTLVVQFTVKHEQNIDCGGGYVKLFPNSLDQTDMHGDSEYNIMFGPDICGPGTKKVHVIFNYKGKNVLINKDIRCKDDEFTHLYTLIVRPDNTYEVKIDNSQVESGSLEDDWDFLPPKKIKDPDASKPEDWDERAKIDDPTDSKPEDWDKPEHIPDPDAKKPEDWDEEMDGEWEPPVIQNPEYKGEWKPRQIDNPDYKGTWIHPEIDNPEYSPDPSIYAYDNFGVLGLDLWQVKSGTIFDNFLITNDEAYAEEFGNETWGVTKAAEKQMKD
# How the values were obtained:
# Assay in all cases: glycan array binding signal (z-score within array); higher = stronger binding
# Conditions in all cases: glycan notation: IUPAC condensed, linker removed
# [1] = target: GlcNAc(a1-4)Gal(b1-4)GlcNAc(b1-3)Gal(b1-4)GlcNAc(b1-3)Gal(b1-4)GlcNAc
# How it was run: (§1)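 Columns mapping to the same glycan were averaged after glycan names were converted to IUPAC-condensed notation. The data come from 3228 arrays in the Consortium for Functional Glycomics database, limited to those with an available protein sequence. Binding is reported as a within-array Z-score averaged across arrays of one protein sequence and across linkers.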
# [2] = target: GlcNAc(a1-4)Gal(b1-4)GlcNAc(b1-3)Gal(b1-4)[Fuc(a1-3)]GlcNAc(b1-3)Gal(b1-4)[Fuc(a1-3)]GlcNAc
# How it was run: as §1
# [3] = target: GlcNAc(a1-6)Gal(b1-4)GlcNAc
# How it was run: as §1
# [4] = target: GlcNAc(b1-2)Gal(b1-3)GalNAc
# How it was run: as §1
# [5] = target: GlcNAc(b1-2)Man(a1-3)[GlcNAc(b1-2)Man(a1-6)]Man(b1-4)GlcNAc(b1-4)GlcNAc
# How it was run: as §1
# [6] = target: GlcNAc(b1-2)Man(a1-3)[GlcNAc(b1-2)Man(a1-6)]Man(b1-4)GlcNAc(b1-4)[Fuc(a1-6)]GlcNAc
# How it was run: as §1
# [7] = target: GlcNAc(b1-2)Man(a1-3)[GlcNAc(b1-4)][GlcNAc(b1-2)Man(a1-6)]Man(b1-4)GlcNAc(b1-4)GlcNAc
# How it was run: as §1
# [8] = target: GlcNAc(b1-2)[GlcNAc(b1-4)]Man(a1-3)[GlcNAc(b1-2)Man(a1-6)]Man(b1-4)GlcNAc(b1-4)GlcNAc
# How it was run: as §1
# [9] = target: GlcNAc(b1-2)[GlcNAc(b1-4)]Man(a1-3)[GlcNAc(b1-4)][GlcNAc(b1-2)Man(a1-6)]Man(b1-4)GlcNAc(b1-4)GlcNAc
# How it was run: as §1
# [10] = target: GlcNAc(b1-2)[GlcNAc(b1-4)]Man(a1-3)[GlcNAc(b1-4)][GlcNAc(b1-2)[GlcNAc(b1-6)]Man(a1-6)]Man(b1-4)GlcNAc(b1-4)GlcNAc
# How it was run: as §1
# [11] = target: GlcNAc(b1-2)[GlcNAc(b1-4)]Man(a1-3)[GlcNAc(b1-4)][GlcNAc(b1-2)[GlcNAc(b1-6)]Man(a1-6)]Man(b1-4)GlcNAc(b1-4)[Fuc(a1-6)]GlcNAc
# How it was run: as §1
# [12] = target: GlcNAc(b1-2)[GlcNAc(b1-6)]Man(a1-6)[GlcNAc(b1-2)Man(a1-3)]Man(b1-4)GlcNAc(b1-4)GlcNAc
# How it was run: as §1
# [13] = target: GlcNAc(b1-2)[GlcNAc(b1-6)]Man(a1-6)[GlcNAc(b1-2)Man(a1-3)]Man(b1-4)GlcNAc(b1-4)[Fuc(a1-6)]GlcNAc
# How it was run: as §1
# [14] = target: GlcNAc(b1-2)[GlcNAc(b1-6)]Man(a1-6)[GlcNAc(b1-2)Man(a1-3)][GlcNAc(b1-4)]Man(b1-4)GlcNAc(b1-4)GlcNAc
# How it was run: as §1
# GlcNAc(b1-3)Gal = target: GlcNAc(b1-3)Gal
# How it was run: as §1
# [15] = target: GlcNAc(b1-3)Gal(b1-3)GalNAc
# How it was run: as §1
# GlcNAc(b1-3)Gal(b1-4)Glc = target: GlcNAc(b1-3)Gal(b1-4)Glc
# How it was run: as §1
# [16] = target: GlcNAc(b1-3)Gal(b1-4)GlcNAc
# How it was run: as §1
# [17] = target: GlcNAc(b1-3)Gal(b1-4)GlcNAc(b1-3)Gal(b1-4)GlcNAc
# How it was run: as §1
# GlcNAc(b1-3)GalNAc = target: GlcNAc(b1-3)GalNAc
# How it was run: as §1
# GlcNAc(b1-3)Man = target: GlcNAc(b1-3)Man
# How it was run: as §1
# [18] = target: GlcNAc(b1-3)[GlcNAc(b1-4)][GlcNAc(b1-6)]GlcNAc
# How it was run: as §1
# [19] = target: GlcNAc(b1-3)[GlcNAc(b1-6)]Gal(b1-4)GlcNAc
# How it was run: as §1
# [20] = target: GlcNAc(b1-3)[GlcNAc(b1-6)]GalNAc
# How it was run: as §1
# [21] = target: GlcNAc(b1-4)Gal(b1-4)GlcNAc
# How it was run: as §1
# GlcNAc(b1-4)GlcNAc = target: GlcNAc(b1-4)GlcNAc
# How it was run: as §1
# [22] = target: GlcNAc(b1-4)GlcNAc(b1-4)GlcNAc
# How it was run: as §1
# [23] = target: GlcNAc(b1-4)GlcNAc(b1-4)GlcNAc(b1-4)GlcNAc(b1-4)GlcNAc
# How it was run: as §1
# [24] = target: GlcNAc(b1-4)GlcNAc(b1-4)GlcNAc(b1-4)GlcNAc(b1-4)GlcNAc(b1-4)GlcNAc
# How it was run: as §1
# [25] = target: GlcNAc(b1-4)[GlcNAc(b1-6)]GalNAc
# How it was run: as §1
# [26] = target: GlcNAc(b1-6)Gal(b1-4)GlcNAc
# How it was run: as §1
# GlcNAc(b1-6)GalNAc = target: GlcNAc(b1-6)GalNAc
# How it was run: as §1
# GlcNAc3Prop(b1-4)GlcNAc = target: GlcNAc3Prop(b1-4)GlcNAc
# How it was run: as §1
# [27] = target: GlcNAc6S(b1-3)Gal(b1-4)GlcNAc
# How it was run: as §1
# Kdn(a2-3)Gal(b1-3)GalNAc = target: Kdn(a2-3)Gal(b1-3)GalNAc
# How it was run: as §1
# Kdn(a2-3)Gal(b1-3)GlcNAc = target: Kdn(a2-3)Gal(b1-3)GlcNAc
# How it was run: as §1
# Kdn(a2-3)Gal(b1-4)Glc = target: Kdn(a2-3)Gal(b1-4)Glc
# How it was run: as §1
binder,measurement,setting,value
B1,glycan array binding signal (z-score),[1],-0.554
same,glycan array binding signal (z-score),[2],2.68
same,glycan array binding signal (z-score),[3],-0.189
same,glycan array binding signal (z-score),[4],-0.975
same,glycan array binding signal (z-score),[5],0.338
same,glycan array binding signal (z-score),[6],-0.046
same,glycan array binding signal (z-score),[7],-0.028
same,glycan array binding signal (z-score),[8],-0.601
same,glycan array binding signal (z-score),[9],-0.472
same,glycan array binding signal (z-score),[10],-0.185
same,glycan array binding signal (z-score),[11],1.35
same,glycan array binding signal (z-score),[12],-0.279
same,glycan array binding signal (z-score),[13],-0.2
same,glycan array binding signal (z-score),[14],-0.104
same,glycan array binding signal (z-score),GlcNAc(b1-3)Gal,-0.504
same,glycan array binding signal (z-score),[15],2.56
same,glycan array binding signal (z-score),GlcNAc(b1-3)Gal(b1-4)Glc,-0.199
same,glycan array binding signal (z-score),[16],-0.325
same,glycan array binding signal (z-score),[17],-0.257
same,glycan array binding signal (z-score),GlcNAc(b1-3)GalNAc,-1.44
same,glycan array binding signal (z-score),GlcNAc(b1-3)Man,-0.239
same,glycan array binding signal (z-score),[18],1.03
same,glycan array binding signal (z-score),[19],-1.21
same,glycan array binding signal (z-score),[20],0.218
same,glycan array binding signal (z-score),[21],-0.386
same,glycan array binding signal (z-score),GlcNAc(b1-4)GlcNAc,-0.824
same,glycan array binding signal (z-score),[22],-0.875
same,glycan array binding signal (z-score),[23],-0.566
same,glycan array binding signal (z-score),[24],0.08
same,glycan array binding signal (z-score),[25],-0.914
same,glycan array binding signal (z-score),[26],-1.14
same,glycan array binding signal (z-score),GlcNAc(b1-6)GalNAc,0.058
same,glycan array binding signal (z-score),GlcNAc3Prop(b1-4)GlcNAc,-0.402
same,glycan array binding signal (z-score),[27],0.023
same,glycan array binding signal (z-score),Kdn(a2-3)Gal(b1-3)GalNAc,-0.218
same,glycan array binding signal (z-score),Kdn(a2-3)Gal(b1-3)GlcNAc,-0.98
same,glycan array binding signal (z-score),Kdn(a2-3)Gal(b1-4)Glc,1.27

# 3 successive records from above, quoted:
binder,measurement,setting,value
B1,glycan array binding signal (z-score),[9],-0.472
same,glycan array binding signal (z-score),[10],-0.185
same,glycan array binding signal (z-score),[11],1.35
